From US20100196355A1, “Immunophilin Ligands and Methods for Modulating Immunophilin and Calcium Channel Activity” (Wyeth, priority 2007, published 2010)
For at least one compound, name, drawing or mass did not settle the structure.

Tests used:
[1] = molecular target: T1, FKBP52 (Mus musculus, UniProt P30416); experiment: Affinity precipitation from F-11 cell lysate, FT-ICR-MS and Western analysis; assay type: binding, rat and mouse hybrid
T1 construct: endogenous in cells; host or cells: F-11 cells (rat DRG x mouse neuroblastoma hybrid), lysate
T1 sequence (P30416 1-458): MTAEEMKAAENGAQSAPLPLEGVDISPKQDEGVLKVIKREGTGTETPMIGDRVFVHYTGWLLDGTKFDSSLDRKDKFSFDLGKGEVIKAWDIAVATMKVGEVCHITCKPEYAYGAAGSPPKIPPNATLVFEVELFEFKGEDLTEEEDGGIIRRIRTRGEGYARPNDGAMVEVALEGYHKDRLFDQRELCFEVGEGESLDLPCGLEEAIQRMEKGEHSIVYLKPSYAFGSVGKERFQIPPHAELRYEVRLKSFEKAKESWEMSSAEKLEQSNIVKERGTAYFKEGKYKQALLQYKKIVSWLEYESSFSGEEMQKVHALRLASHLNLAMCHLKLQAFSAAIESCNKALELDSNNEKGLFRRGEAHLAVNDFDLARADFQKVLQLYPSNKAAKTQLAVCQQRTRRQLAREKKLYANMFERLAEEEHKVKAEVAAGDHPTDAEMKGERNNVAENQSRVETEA
Procedure: Briefly, the amino group of amino-phenyl-butyric acid (1200 mg) was protected with an allyloxycarbonyl group by treating with diallyldicarbonate ([…]) in dioxane:water (3:1; 50 ml) for 3 h at room temperature.
The reaction was quenched with methanol and the ester product was purified by HPLC with a purity of 99% and characterized by MS and NMR. After removing the allyloxycarbonyl group of the ester product (40 mg) by treatment with Pd(PPh3)4 (2 mg) and dimedone (7 mg) in THF (1.2 ml), the amino group of the product was linked to Affigel-10 matrix (4 ml) in the presence of 2% pyridine in THF.
F11 cells were grown in culture medium, DMEM supplemented with 10% FBS and 1% pen/Strep, in 75 cm^2 vented flasks in 37° C. incubator with 5% CO2. Cells were harvested at 80% confluence and washed with PBS buffer. Lysis buffer (6 ml; 50 mM Tris, pH 7.4, 250 mM NaCl, 5 mM EDTA, 50 mM NaF, 1 mM Na3VO4, 1% Nonidet P40 (NP40), 0.1% mercaptoethanol and 2% protease inhibitor cocktails) was added to 10^9 cells. […] After washes with lysis buffer (2 ml) and then PBS (2 ml), the beads were analyzed on 4-20% SDS-PAGE gel. […]
In another experiment, F11 cells were grown in culture medium, DMEM supplemented with 10% FBS and 1% Pen/Strep, in 75 cm^2 vented flasks in a 37° C. incubator with 5% CO2. […] After wash with lysis buffer (2 ml) and then PBS buffer (2 ml), beads were analyzed by SDS-PAGE. […]

[2] = tested on: Ca2+ channel in F-11 cells; experiment: Whole-cell patch clamp recording of Ca2+ currents in F-11 cells; assay type: cell-based, rat and mouse hybrid; conditions: 10 min application
Procedure: The whole-cell configuration of the patch-clamp technique was used to record calcium currents from the cells at room temperature using an EPC-9 amplifier (HEKA, Instrutech Corp.) with the acquisition and analysis program Pulse-PulseFit from HEKA (Lambrecht, Germany). Electrodes were fabricated using a P-87 puller (Sutter Instrument). […] The standard bath recording solution is Ca^2+ and Mg^2+ free HBSS (pH 7.4) containing 10 mM HEPES, 10 mM dextrose, and 4 mM BaCl2. Currents were filtered at 3 kHz, and the inward Ca^2+ currents were recorded from cells held at −90 mV with 10 mV depolarizing steps from −80 mV to 60 mV for 50 ms.

SMILES: C=CC[C@@H]1/C=C(\C)C[C@H](C)C[C@H](OC)[C@H]2O[C@@](O)(C(=O)C(=O)N3CCCC[C@H]3C(=O)O[C@H](/C(C)=C/[C@@H]3CC[C@@H](O)[C@H](OC)C3)[C@H](C)[C@@H](O)CC1=O)[C@H](C)C[C@@H]2OC [FK506, reference compound]
- FKBP52 in affinity bead fraction [1]: detected
- whole-cell Ca2+ currents, short bath application [2]: inhibited the Ca^2+ current
